No constants are given. Whether binding was seen depends on the method and setting. In cells and extracts the contact can be indirect. These calls come from enrichment with a bait or labelling near it, and not all partners need be listed. Sequences can lack the tags named with a protein.
B1: Dynein intermediate chain 2; axonemal (protein, UniProt Q9GZS0 1-605)
chain: MEIVYVYVKKRSEFGKQCNFSDRQAELNIDIMPNPELAEQFVERNPVDTGIQCSISMSEHEANSERFEMETRGVNHVEGGWPKDVNPLELEQTIRFRKKVEKDENYVNAIMQLGSIMEHCIKQNNAIDIYEEYFNDEEAMEVMEEDPSAKTINVFRDPQEIKRAATHLSWHPDGNRKLAVAYSCLDFQRAPVGMSSDSYIWDLENPNKPELALKPSSPLVTLEFNPKDSHVLLGGCYNGQIACWDTRKGSLVAELSTIESSHRDPVYGTIWLQSKTGTECFSASTDGQVMWWDIRKMSEPTEVVILDITKKEQLENALGAISLEFESTLPTKFMVGTEQGIVISCNRKAKTSAEKIVCTFPGHHGPIYALQRNPFYPKNFLTVGDWTARIWSEDSRESSIMWTKYHMAYLTDAAWSPVRPTVFFTTRMDGTLDIWDFMFEQCDPTLSLKVCDEALFCLRVQDNGCLIACGSQLGTTTLLEVSPGLSTLQRNEKNVASSMFERETRREKILEARHREMRLKEKGKAEGRDEEQTDEELAVDLEALVSKAEEEFFDIIFAELKKKEADAIKLTPVPQQPSPEEDQVVEEGEEAAGEEGDEEVEEDLA
B2: Rho GTPase-activating protein 6 (protein, UniProt O43182 1-974)
chain: MSAQSLLHSVFSCSSPASSSAASAKGFSKRKLRQTRSLDPALIGGCGSDEAGAEGSARGATAGRLYSPSLPAESLGPRLASSSRGPPPRATRLPPPGPLCSSFSTPSTPQEKSPSGSFHFDYEVPLGRGGLKKSMAWDLPSVLAGPASSRSASSILCSSGGGPNGIFASPRRWLQQRKFQSPPDSRGHPYVVWKSEGDFTWNSMSGRSVRLRSVPIQSLSELERARLQEVAFYQLQQDCDLSCQITIPKDGQKRKKSLRKKLDSLGKEKNKDKEFIPQAFGMPLSQVIANDRAYKLKQDLQRDEQKDASDFVASLLPFGNKRQNKELSSSNSSLSSTSETPNESTSPNTPEPAPRARRRGAMSVDSITDLDDNQSRLLEALQLSLPAEAQSKKEKARDKKLSLNPIYRQVPRLVDSCCQHLEKHGLQTVGIFRVGSSKKRVRQLREEFDRGIDVSLEEEHSVHDVAALLKEFLRDMPDPLLTRELYTAFINTLLLEPEEQLGTLQLLIYLLPPCNCDTLHRLLQFLSIVARHADDNISKDGQEVTGNKMTSLNLATIFGPNLLHKQKSSDKEFSVQSSARAEESTAIIAVVQKMIENYEALFMVPPDLQNEVLISLLETDPDVVDYLLRRKASQSSSPDMLQSEVSFSVGGRHSSTDSNKASSGDISPYDNNSPVLSERSLLAMQEDAAPGGSEKLYRVPGQFMLVGHLSSSKSRESSPGPRLGKDLSEEPFDIWGTWHSTLKSGSKDPGMTGSSGDIFESSSLRAGPCSLSQGNLSPNWPRWQGSPAELDSDTQGARRTQAAAPATEGRAHPAVSRACSTPHVQVAGKAERPTARSEQYLTLSGAHDLSESELDVAGLQSRATPQCQRPHGSGRDDKRPPPPYPGPGKPAAAAAWIQGPPEGVETPTDQGGQAAEREQQVTQKKLSSANSLPAGEQDSPRLGDAGWLDWQRERWQIWELLSTDNPDALPETLV

Chains of the proteins cited; added tags and fusions are not shown.
UniProt Q8IZD9: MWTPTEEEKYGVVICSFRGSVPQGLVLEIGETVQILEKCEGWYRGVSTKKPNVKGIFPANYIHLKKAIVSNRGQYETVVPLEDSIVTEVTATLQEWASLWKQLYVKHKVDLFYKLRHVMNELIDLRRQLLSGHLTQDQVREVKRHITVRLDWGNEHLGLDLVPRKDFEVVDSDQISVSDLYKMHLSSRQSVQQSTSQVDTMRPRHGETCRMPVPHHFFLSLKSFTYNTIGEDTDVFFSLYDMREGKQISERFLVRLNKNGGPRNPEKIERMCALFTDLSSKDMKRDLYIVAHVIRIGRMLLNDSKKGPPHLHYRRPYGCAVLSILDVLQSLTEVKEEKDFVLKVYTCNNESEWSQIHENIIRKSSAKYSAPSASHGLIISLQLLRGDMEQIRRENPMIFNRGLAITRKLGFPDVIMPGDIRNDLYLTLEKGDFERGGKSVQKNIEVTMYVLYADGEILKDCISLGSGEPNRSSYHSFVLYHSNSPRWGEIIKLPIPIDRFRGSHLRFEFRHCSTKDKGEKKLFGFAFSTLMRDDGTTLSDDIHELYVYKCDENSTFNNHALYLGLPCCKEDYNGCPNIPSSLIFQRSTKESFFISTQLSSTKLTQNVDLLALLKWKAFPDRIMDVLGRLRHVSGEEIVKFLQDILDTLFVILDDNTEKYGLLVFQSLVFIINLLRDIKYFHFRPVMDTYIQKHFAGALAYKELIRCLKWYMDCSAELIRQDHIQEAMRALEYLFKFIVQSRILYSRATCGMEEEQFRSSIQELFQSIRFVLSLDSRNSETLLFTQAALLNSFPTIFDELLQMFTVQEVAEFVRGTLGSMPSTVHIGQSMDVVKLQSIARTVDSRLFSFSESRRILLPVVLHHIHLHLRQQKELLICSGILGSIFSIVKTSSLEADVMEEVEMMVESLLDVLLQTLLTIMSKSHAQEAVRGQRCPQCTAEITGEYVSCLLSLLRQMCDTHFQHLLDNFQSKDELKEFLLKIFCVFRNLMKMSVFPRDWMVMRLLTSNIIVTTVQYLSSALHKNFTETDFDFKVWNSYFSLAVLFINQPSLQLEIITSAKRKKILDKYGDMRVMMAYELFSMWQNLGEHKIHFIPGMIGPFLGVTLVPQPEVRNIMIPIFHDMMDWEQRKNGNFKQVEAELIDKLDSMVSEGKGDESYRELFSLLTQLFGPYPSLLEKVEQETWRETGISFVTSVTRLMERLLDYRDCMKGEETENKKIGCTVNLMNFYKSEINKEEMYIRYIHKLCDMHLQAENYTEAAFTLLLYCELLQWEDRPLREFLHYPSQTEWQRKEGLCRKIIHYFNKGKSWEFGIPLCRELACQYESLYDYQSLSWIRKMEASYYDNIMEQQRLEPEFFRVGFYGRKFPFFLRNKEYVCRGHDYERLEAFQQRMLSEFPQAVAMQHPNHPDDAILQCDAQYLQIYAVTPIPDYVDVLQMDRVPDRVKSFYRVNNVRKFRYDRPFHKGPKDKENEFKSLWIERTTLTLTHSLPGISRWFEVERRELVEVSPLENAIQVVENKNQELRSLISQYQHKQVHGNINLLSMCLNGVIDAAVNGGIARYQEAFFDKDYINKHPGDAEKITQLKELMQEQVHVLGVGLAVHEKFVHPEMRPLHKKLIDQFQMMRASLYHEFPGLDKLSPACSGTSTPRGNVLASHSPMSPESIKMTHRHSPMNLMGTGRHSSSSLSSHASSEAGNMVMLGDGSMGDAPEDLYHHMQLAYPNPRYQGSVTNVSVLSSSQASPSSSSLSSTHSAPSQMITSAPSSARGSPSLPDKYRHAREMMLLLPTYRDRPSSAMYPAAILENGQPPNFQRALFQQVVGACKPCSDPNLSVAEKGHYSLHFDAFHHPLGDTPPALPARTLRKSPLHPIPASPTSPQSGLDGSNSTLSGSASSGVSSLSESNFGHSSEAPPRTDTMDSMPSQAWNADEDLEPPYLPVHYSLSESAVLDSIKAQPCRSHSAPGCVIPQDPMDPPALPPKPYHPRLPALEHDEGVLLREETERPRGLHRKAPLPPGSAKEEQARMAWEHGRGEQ
UniProt Q96DT5: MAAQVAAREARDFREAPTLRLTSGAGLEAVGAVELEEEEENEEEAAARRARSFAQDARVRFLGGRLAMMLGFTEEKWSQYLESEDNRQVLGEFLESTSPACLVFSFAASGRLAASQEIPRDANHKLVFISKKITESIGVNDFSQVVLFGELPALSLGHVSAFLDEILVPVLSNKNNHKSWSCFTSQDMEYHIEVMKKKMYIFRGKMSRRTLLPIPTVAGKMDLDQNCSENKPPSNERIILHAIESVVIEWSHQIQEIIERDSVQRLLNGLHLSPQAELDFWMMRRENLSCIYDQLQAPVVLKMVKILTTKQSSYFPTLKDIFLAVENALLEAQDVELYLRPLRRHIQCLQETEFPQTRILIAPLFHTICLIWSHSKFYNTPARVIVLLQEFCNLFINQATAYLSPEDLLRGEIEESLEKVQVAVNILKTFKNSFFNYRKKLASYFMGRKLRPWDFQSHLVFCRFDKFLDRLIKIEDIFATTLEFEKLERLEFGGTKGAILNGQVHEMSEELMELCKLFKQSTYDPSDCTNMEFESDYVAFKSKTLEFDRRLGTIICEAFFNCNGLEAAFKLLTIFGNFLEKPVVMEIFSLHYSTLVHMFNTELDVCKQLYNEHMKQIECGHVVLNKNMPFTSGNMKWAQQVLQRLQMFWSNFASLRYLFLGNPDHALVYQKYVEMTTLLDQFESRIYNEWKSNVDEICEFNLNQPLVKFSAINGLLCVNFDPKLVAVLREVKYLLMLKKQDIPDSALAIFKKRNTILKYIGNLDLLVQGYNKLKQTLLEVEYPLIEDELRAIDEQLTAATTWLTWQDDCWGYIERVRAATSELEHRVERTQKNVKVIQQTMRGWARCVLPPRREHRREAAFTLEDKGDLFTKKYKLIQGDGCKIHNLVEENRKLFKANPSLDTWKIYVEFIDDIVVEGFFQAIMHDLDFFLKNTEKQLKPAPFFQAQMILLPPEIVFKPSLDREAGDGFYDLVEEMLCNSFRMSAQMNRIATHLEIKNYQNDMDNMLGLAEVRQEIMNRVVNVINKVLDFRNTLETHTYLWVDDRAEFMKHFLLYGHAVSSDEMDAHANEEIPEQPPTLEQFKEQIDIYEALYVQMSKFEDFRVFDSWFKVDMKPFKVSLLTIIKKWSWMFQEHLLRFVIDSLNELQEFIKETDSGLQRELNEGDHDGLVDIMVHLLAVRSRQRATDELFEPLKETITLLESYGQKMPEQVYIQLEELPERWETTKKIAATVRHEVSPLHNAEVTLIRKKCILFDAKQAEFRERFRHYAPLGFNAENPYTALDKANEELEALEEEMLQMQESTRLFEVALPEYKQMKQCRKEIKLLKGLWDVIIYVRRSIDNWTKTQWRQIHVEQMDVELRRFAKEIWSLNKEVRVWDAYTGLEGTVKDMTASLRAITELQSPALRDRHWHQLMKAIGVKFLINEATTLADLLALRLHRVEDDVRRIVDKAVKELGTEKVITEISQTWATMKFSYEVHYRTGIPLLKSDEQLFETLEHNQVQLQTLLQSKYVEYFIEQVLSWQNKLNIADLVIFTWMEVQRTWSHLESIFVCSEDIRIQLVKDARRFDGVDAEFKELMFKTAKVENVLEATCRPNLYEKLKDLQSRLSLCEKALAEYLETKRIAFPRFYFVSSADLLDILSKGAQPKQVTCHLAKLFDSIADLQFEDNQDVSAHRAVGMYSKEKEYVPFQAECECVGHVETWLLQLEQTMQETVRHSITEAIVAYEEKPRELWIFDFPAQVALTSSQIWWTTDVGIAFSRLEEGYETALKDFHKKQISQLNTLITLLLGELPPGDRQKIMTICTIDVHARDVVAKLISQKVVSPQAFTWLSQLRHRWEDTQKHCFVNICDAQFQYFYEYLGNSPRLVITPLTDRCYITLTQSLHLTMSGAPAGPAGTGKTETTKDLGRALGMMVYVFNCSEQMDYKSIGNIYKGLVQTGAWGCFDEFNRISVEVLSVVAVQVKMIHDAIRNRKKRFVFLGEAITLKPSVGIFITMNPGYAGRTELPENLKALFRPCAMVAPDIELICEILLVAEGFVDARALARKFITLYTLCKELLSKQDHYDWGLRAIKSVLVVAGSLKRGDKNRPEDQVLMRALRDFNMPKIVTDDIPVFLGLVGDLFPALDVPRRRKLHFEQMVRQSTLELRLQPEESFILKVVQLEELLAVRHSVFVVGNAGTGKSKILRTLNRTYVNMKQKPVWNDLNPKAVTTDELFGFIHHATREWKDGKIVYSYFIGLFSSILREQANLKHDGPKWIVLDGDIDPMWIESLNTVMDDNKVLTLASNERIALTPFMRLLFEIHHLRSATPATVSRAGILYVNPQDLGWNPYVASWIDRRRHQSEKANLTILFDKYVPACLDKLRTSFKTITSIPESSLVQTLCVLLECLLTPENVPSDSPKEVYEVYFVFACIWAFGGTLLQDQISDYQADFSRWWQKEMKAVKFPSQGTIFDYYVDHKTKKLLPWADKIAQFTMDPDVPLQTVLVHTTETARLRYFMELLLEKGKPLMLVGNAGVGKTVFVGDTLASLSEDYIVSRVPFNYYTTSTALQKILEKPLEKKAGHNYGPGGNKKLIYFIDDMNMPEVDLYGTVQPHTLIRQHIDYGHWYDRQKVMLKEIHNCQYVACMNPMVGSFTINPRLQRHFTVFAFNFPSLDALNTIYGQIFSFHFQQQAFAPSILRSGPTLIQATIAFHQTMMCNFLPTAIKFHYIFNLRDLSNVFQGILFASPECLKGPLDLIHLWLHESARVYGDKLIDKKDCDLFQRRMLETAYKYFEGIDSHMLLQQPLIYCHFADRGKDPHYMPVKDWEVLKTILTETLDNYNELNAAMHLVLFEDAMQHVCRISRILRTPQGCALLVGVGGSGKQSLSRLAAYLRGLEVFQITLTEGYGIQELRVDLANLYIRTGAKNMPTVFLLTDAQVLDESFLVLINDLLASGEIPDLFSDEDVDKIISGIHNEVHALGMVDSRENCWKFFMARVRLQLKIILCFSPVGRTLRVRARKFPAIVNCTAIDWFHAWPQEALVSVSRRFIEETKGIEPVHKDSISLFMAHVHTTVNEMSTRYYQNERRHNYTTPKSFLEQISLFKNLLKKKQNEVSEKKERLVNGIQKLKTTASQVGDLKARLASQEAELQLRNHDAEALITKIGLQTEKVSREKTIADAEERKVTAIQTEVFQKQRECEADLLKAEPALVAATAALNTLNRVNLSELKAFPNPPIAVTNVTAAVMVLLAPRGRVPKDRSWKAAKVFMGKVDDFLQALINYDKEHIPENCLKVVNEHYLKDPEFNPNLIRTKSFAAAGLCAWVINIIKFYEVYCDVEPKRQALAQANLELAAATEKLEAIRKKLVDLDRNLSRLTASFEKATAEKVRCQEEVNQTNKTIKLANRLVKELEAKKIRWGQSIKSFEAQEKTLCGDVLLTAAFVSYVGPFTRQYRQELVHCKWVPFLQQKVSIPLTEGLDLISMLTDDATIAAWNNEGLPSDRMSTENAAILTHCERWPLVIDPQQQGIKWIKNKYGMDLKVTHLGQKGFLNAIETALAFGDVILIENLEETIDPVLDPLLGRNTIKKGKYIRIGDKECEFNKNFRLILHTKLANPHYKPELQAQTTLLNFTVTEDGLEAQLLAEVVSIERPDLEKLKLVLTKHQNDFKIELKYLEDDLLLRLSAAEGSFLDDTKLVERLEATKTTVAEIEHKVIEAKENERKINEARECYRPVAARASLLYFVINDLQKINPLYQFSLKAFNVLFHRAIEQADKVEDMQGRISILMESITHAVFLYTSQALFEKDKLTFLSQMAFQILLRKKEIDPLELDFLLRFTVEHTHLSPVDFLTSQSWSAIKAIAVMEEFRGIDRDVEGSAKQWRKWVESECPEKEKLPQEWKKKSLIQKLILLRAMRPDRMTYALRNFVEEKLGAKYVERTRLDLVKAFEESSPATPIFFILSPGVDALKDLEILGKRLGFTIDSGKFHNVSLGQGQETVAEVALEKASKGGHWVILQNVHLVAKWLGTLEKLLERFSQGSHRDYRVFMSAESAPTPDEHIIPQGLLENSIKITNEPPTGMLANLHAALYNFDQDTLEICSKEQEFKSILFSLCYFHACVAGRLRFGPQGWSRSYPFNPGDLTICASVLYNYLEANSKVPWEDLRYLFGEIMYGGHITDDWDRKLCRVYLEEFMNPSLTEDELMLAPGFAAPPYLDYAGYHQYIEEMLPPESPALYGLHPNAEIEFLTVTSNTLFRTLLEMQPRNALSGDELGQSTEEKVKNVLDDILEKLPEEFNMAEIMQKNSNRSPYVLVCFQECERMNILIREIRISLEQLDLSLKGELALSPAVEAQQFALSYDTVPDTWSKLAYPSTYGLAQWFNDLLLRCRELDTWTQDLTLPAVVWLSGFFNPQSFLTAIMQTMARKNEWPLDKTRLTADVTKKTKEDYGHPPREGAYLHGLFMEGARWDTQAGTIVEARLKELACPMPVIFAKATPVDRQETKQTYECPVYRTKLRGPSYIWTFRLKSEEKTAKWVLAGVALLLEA

molecular target: T1, M2-flagged human RhoGDI2 (Rho GDP-dissociation inhibitor 2) (human) (UniProt P52566); assay: affinity purification with mass spectrometry; lysates of 10^7 U-2 OS cells expressing N-terminally or C-terminally flagged RhoGDI2 (control: empty pcDNA4/T0 cells) immunoprecipitated with anti-M2 FLAG antibody; immune complexes analysed by mass spectrometry; n = 2 per condition
T1 sequence: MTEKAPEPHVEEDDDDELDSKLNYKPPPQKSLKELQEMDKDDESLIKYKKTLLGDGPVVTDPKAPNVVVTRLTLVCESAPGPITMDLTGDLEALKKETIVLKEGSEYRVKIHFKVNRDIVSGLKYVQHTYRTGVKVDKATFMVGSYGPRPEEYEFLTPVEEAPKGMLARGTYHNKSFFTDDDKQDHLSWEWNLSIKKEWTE

| Molecule | binding |
| --- | --- |
| Centrosomal protein of 192 kDa (from UniProt Q8TEP8 1-2537) | binds |
| Dedicator of cytokinesis protein 3 (from UniProt Q8IZD9 1-2030) | binds |
| Dynein heavy chain 9; axonemal (from UniProt Q9NYC9 1-4486) | binds |
| Dynein heavy chain 11; axonemal (from UniProt Q96DT5 1-4516) | binds |
| Dynein heavy chain 14; axonemal (from UniProt Q0VDD8 1-3507) | binds |
| Intersectin-1 (from UniProt Q15811 1-1721) | binds |
| Myosin-3 (from UniProt P11055 1-1940) | binds |
| Xin actin-binding repeat-containing protein 2 (from UniProt A4UGR9 1-3374) | binds |
| B1 | binds |
| B2 | binds |

From PMC12651903
